Record: PubChem BioAssay AID743454 (Peter MacCallum Cancer Centre, 2014)
In all, the deposit lists about 18,000 reagents; shown is a random part of them. 450 of them (2.5%) were called active. 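Single biological run; no consistent viability z cut-off exists, so the class columns, not z-scores, define the calls.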

- Test: 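Genes whose loss kills vorinostat-resistant colon cancer cells under vorinostat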 (primary screen)
- Cell system: human HCT116-VR colon cancer cells, selected for vorinostat resistance
- Knock-down reagent: siRNA pool against human genes, 40 nM siRNA pool
- Time to read-out: vorinostat for 24 h, read-out about 72 h after transfection
- Treatment: vorinostat at 2.5 µM final
- Measurement: 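Two measures, CellTiter-Fluor viability and luminescent caspase 3/7 activity, each as fold change against same-plate mock wells, mean of duplicates, then screen-wide robust z-score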
- Reading the numbers: viability robust z-score: higher = more viable cells than screen typical; caspase robust z-score: higher = more caspase 3/7 activity than screen typical
- Call rule: 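a knock-down is a hit when classed RV1 or RV2 for lowered viability, or CA1 or CA2 for caspase activation; those lethal without drug were dropped; hits were retested singly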

With knock-down of CD300E (CD300e molecule), the record shows viability hit class no change; caspase hit class no change; viability robust z-score -0.62; caspase robust z-score -1.34; inactive. Depletion of BORCS7 (BLOC-1 related complex subunit 7) came out at: viability hit class no change; caspase hit class no change; viability robust z-score -1.82; caspase robust z-score -0.91; inactive. Silencing of OR13C2 (olfactory receptor family 13 subfamily C member 2) resulted in: viability hit class no change; caspase hit class no change; viability robust z-score 1.7; caspase robust z-score 1.65; inactive. After knock-down of VPS28 (VPS28 subunit of ESCRT-I), the screen gave viability hit class no change; caspase hit class no change; viability robust z-score 1.37; caspase robust z-score 2.11; inactive. After knock-down of TFAP2E (transcription factor AP-2 epsilon), the record shows viability hit class no change; caspase hit class no change; viability robust z-score -0.72; caspase robust z-score -0.8; inactive. Against TRIM8 (tripartite motif containing 8), the values are viability hit class no change; caspase hit class no change; viability robust z-score -2.05; caspase robust z-score -0.6; inactive.

Against TSGA10IP (testis specific 10 interacting protein), the values are viability hit class no change; caspase hit class no change; viability robust z-score -0.92; caspase robust z-score 0.64; inactive. Against CREBBP (CREB binding lysine acetyltransferase) the deposit lists viability hit class no change; caspase hit class no change; viability robust z-score -0.32; caspase robust z-score -0.74; inactive. ARHGAP17 (Rho GTPase activating protein 17) gave viability hit class no change; caspase hit class no change; viability robust z-score 0.65; caspase robust z-score 1.03; inactive. UBE2J1 (ubiquitin conjugating enzyme E2 J1) gave viability hit class no change; caspase hit class no change; viability robust z-score 0.79; caspase robust z-score -0.53; inactive. After knock-down of PFN3 (profilin 3) the results were viability hit class no change; caspase hit class no change; viability robust z-score -0.32; caspase robust z-score 0.67; inactive. For UNC5CL (unc-5 family C-terminal like), the entry reads viability hit class no change; caspase hit class no change; viability robust z-score 0.16; caspase robust z-score -0.74; inactive.

After knock-down of SH3BP5 (SH3 domain binding protein 5) the results were viability hit class no change; caspase hit class no change; viability robust z-score 1.03; caspase robust z-score -0.78; inactive. APRT (adenine phosphoribosyltransferase) gave viability hit class no change; caspase hit class no change; viability robust z-score 0.88; caspase robust z-score 2.25; inactive. Depletion of F12 (coagulation factor XII) resulted in: viability hit class no change; caspase hit class no change; viability robust z-score -1.4; caspase robust z-score 1.88; inactive. Knock-down of DHRS9 (dehydrogenase/reductase 9) came out at: viability hit class no change; caspase hit class no change; viability robust z-score 0.7; caspase robust z-score -0.36; inactive. MS4A5 (membrane spanning 4-domains A5) scored viability hit class no change; caspase hit class no change; viability robust z-score 0.86; caspase robust z-score -0.84; inactive. With knock-down of STK26 (serine/threonine kinase 26) the results were viability hit class no change; caspase hit class no change; viability robust z-score 1.7; caspase robust z-score -0.8; inactive.

CDC42EP2 (CDC42 effector protein 2) scored viability hit class no change; caspase hit class no change; viability robust z-score -0.04; caspase robust z-score -0.46; inactive. ZNF776 (zinc finger protein 776) scored viability hit class no change; caspase hit class no change; viability robust z-score -0.95; caspase robust z-score 0.94; inactive. With knock-down of GPN2 (GPN-loop GTPase 2), the screen gave viability hit class no change; caspase hit class no change; viability robust z-score -0.35; caspase robust z-score 0.54; inactive.

2 of these entries, set out differently:
target	viability hit class	caspase hit class	viability robust z-score	caspase robust z-score	outcome
STK26 (serine/threonine kinase 26)	no change	no change	1.7	-0.8	inactive
CDC42EP2 (CDC42 effector protein 2)	no change	no change	-0.04	-0.46	inactive
